Record: PubChem BioAssay AID652243 (Drosophila RNAi Screening Center, 2013)
The deposit covers about 24,000 reagents; this is an unselected part of those that have a named target and a result. In the full data, 246 (1%) are marked active. 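Plates not normalised; calls are printed but the firefly/Renilla ratio behind them is not deposited; fold cut for lowering reported inconsistently.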 The raw values are shown without normalisation. A number with no mark means an inactive call. A plus sign joins genes that one reagent is predicted to hit. Not given: the amount of reagent.

Aim: 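Fly regulators of androgen-dependent reporter output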 (primary screen)
Cell system: Drosophila S2R+ cells
Knock-down reagent: long dsRNA against Drosophila genes
Timing: 72 h (48 h, then 24 h hormone)
Treatment: synthetic androgen R1881 at 10 nM for 24 h
Measured: 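Firefly light from an androgen-responsive reporter and Renilla control light per well, raw and unnormalised, for each of two replicates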
Scale: firefly reporter light: higher = more light from androgen-responsive reporter; Renilla control light: higher = more constitutive control signal (cell number, transfection)
Call rule: 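Across duplicate plates, a knock-down whose log firefly/Renilla ratio shifted a set fold down or up from the GFP/LacZ control mean was a hit; the downward cut appears as both 1.5 and 3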
Calls: active = hit: reporter lowered or raised; inactive = no hit

gene | DRSC id | firefly reporter light, replicate 1 | firefly reporter light, replicate 2 | Renilla control light, replicate 1 | Renilla control light, replicate 2
Tret1-1 | DRSC07046 | 2.69e5 | 1.53e5 | 1.98e6 | 1.68e6
Tret1-1 | DRSC07048 | 2.00e5 | 1.43e5 | 1.00e6 | 9.31e5
Tret1-1 | DRSC25701 | 6.86e5 | 8.75e5 | 9.45e5 | 9.77e5
CheA87a | DRSC14839 | 2.54e5 | 1.77e5 | 1.59e6 | 2.22e6
Taf10b | DRSC26605 | 2.00e5 | 1.94e5 | 3.52e5 | 3.72e5
ACXE | DRSC00847 | 1.98e5 | 1.40e5 | 1.98e6 | 1.27e6
CG6462 | DRSC10641 | 1.12e5 | 1.17e5 | 1.32e6 | 1.38e6
CG6462 | DRSC24608 | 1.01e6 | 9.89e5 | 9.40e5 | 9.08e5
csul | DRSC07599 | 52185 | 64579 | 9.61e5 | 9.61e5
CG31249 | DRSC16248 | 60922 | 68123 | 1.12e6 | 9.60e5
Vha36-3 | DRSC18615 | 5.04e5 | 4.76e5 | 4.13e6 | 3.27e6
Vha36-3 | DRSC28636 | 4.34e5 | 4.43e5 | 1.30e6 | 1.47e6
Eh | DRSC16660 | 2.52e5 | 2.94e5 | 2.88e6 | 2.70e6
ppk19 | DRSC15321 | 1.83e5 | 1.75e5 | 2.01e6 | 2.27e6
TotA | DRSC13448 | 1.35e5 | 1.67e5 | 24313 | 1.93e5
CG14891 | DRSC15013 | 1.05e5 | 1.14e5 | 6.74e5 | 7.11e5
noc | DRSC24997 | 3.88e5 | 4.37e5 | 4.54e5 | 5.64e5
TwdlK | DRSC24969 | 6.37e5 | 1.09e6 | 1.14e6 | 1.25e6
CG15025 | DRSC15031 | 1.86e5 | 2.00e5 | 2.35e6 | 2.67e6
Itpr | DRSC12354 | 1.14e5 | 67999 | 2.98e6 | 1.05e6
Itpr | DRSC28770 | 1.00e6 | 1.13e6 | 1.05e6 | 1.06e6
Sec15 | DRSC16179 | 2.87e5 | 3.04e5 | 3.59e6 | 3.47e6
Sec15 | DRSC29670 | 2.49e5 | 3.70e5 | 8.34e5 | 8.34e5
CG33454 | DRSC22914 | 4.28e5 | 7.22e5 | 9.94e5 | 1.73e6
CG33454 | DRSC26767 | 4.22e5 | 3.94e5 | 9.75e5 | 8.56e5
Parp1 | DRSC07725 | 2.04e5 | 1.52e5 | 2.64e5 | 3.50e5
Parp1 | DRSC07778 | 94178 | 64801 | 8.01e5 | 1.04e6
Parp1 | DRSC07780 | 78721 | 78419 | 1.11e6 | 9.22e5
ERp44 | DRSC20215 | 98912 | 85681 | 6.70e5 | 6.43e5
CG7135 | DRSC20026 | 3.77e5 | 3.00e5 | 3.54e6 | 2.37e6
CG7135 | DRSC29942 | 8.42e5 | 6.10e5 | 1.35e6 | 1.70e6
Rpp21 | DRSC22480 | 6.52e5 | 6.92e5 | 1.36e6 | 2.31e6
Rpp21 | DRSC29867 | 8.12e5 | 7.52e5 | 8.63e5 | 7.27e5
kl-3 (retired record) | DRSC20730 | 7.08e5 | 6.60e5 | 8.93e5 | 7.92e5
kl-3 (retired record) | DRSC20891 | 2.04e5 | 1.72e5 | 6.69e5 | 5.26e5
kl-3 (retired record) | DRSC20934 | 6.42e5 | 6.22e5 | 3.58e5 | 3.33e5
CG7079 | DRSC16192 | 1.54e5 | 2.06e5 | 3.01e6 | 3.16e6
CG7079 | DRSC29827 | 5.81e5 | 6.25e5 | 1.26e6 | 1.38e6
UGP + PGRP-LF | DRSC10418 | 1.92e5 | 2.29e5 | 2.11e6 | 2.13e6
CG11858 | DRSC14412 | 7.26e5 | 7.04e5 | 1.88e6 | 1.33e6
CG11858 | DRSC29222 | 1.02e6 | 9.19e5 | 1.46e6 | 1.17e6
Ankrd49 | DRSC01894 | 1.74e5 | 1.24e5 | 1.63e6 | 1.38e6
Ankrd49 | DRSC29117 | 4.03e5 | 3.48e5 | 1.39e6 | 1.19e6
CG6791 | DRSC16118 | 63692 | 1.12e5 | 4.17e5 | 5.27e5
CG6791 | DRSC29079 | 6.28e5 | 7.42e5 | 1.55e6 | 1.43e6
spin | DRSC07176 | 2.70e5 | 2.87e5 | 3.43e6 | 2.89e6
spin | DRSC22271 | 7.82e5 | 8.81e5 | 1.83e6 | 1.77e6
CG8833 | DRSC11050 | 3.87e5 | 9.58e5 | 5.91e5 | 1.34e6
Mcr | DRSC03366 | 9.18e5 | 7.23e5 | 1.51e6 | 1.49e6
CG13063 | DRSC09946 | 3.31e5 | 3.67e5 | 3.36e6 | 2.96e6
CG13063 | DRSC25466 | 6.87e5 | 6.39e5 | 9.71e5 | 9.65e5
CG11755 | DRSC14374 | 1.06e5 | 1.56e5 | 2.57e6 | 2.48e6
CG11755 | DRSC26076 | 3.00e5 | 2.89e5 | 8.30e5 | 7.42e5
CG13110 | DRSC02208 | 3.09e5 | 4.84e5 | 1.99e6 | 3.12e6
RpL7 | DRSC03417 | 1.23e5 | 1.09e5 | 6.76e5 | 7.83e5
RpL7 | DRSC29340 | 2.29e5 | 3.46e5 | 5.25e5 | 5.25e5
Cyp12d1-d + Cyp12d1-p | DRSC21507 | 6.69e5 | 7.82e5 | 3.07e6 | 2.41e6
Cyp12d1-d + Cyp12d1-p | DRSC27261 | 2.10e5 | 3.09e5 | 5.46e5 | 6.30e5
CG16786 | DRSC04281 | 3.91e5 | 3.59e5 | 3.19e6 | 2.45e6
sisA | DRSC20374 | 1.26e5 | 1.08e5 | 2.51e6 | 2.62e6
sisA | DRSC29331 | 4.60e5 | 4.65e5 | 1.44e6 | 1.44e6
CG2182 | DRSC12308 | 50634 | 43413 | 4.84e5 | 4.06e5
CG2182 | DRSC30052 | 9.19e5 | 9.45e5 | 1.92e6 | 1.59e6
CG4168 | DRSC01447 | 3.10e5 | 3.62e5 | 5.53e5 | 6.05e5
CG4168 | DRSC01933 | 1.07e6 | 1.26e6 | 1.43e6 | 1.33e6
CG4168 | DRSC21319 | 7.24e5 | 7.31e5 | 2.42e6 | 1.63e6
CG4168 | DRSC22789 | 4.59e5 | 8.62e5 | 9.73e5 | 1.53e6
Sarm | DRSC08906 | 1.09e6 | 1.06e6 | 1.54e6 | 9.64e5
Sarm | DRSC08907 | 7.25e5 | 9.30e5 | 1.12e6 | 1.22e6
Sarm | DRSC10038 | 3.57e5 | 3.12e5 | 3.41e6 | 2.72e6
Sarm | DRSC10039 | 2.03e5 | 1.07e5 | 2.90e6 | 8.89e5
Sarm | DRSC10927 | 2.01e5 | 2.67e5 | 1.98e6 | 2.05e6
Sarm | DRSC10929 | 4.59e5 | 5.78e5 | 1.01e6 | 1.22e6
Sarm | DRSC27924 | 4.31e5 | 3.97e5 | 1.49e6 | 1.08e6
